PubChem BioAssay AID652243 | Drosophila RNAi Screening Center – 2013
Aim: 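Fly regulators of androgen-dependent reporter output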 (primary screen). Cell system: Drosophila S2R+ cells. Reagents: long dsRNA against Drosophila genes. Duration: 72 h (48 h, then 24 h hormone). Conditions: synthetic androgen R1881 at 10 nM for 24 h. Detection: 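Per-well raw luminescence of the androgen-driven firefly reporter and of the Renilla control, two replicates each, without normalisation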. Direction: firefly reporter light: higher = more light from androgen-responsive reporter; Renilla control light: higher = more constitutive control signal (cell number, transfection). Call rule: 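Across duplicate plates, a knock-down whose log firefly/Renilla ratio shifted a set fold down or up from the GFP/LacZ control mean was a hit; the downward cut appears as both 1.5 and 3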. Calls: active = hit: reporter lowered or raised; inactive = no hit.
The deposit covers about 24,000 reagents; shown is an unselected part of those with a known target gene and a result. Of all reagents, 246 (1%) are marked active. 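Plates not normalised; calls are printed but the firefly/Renilla ratio behind them is not deposited; fold cut for lowering reported inconsistently.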 Raw values are not corrected between plates. Reagents against one gene are numbered here. Names joined by + are all predicted targets of the reagent. Reagent sequences are not shown. Not given: the amount of reagent.

With knock-down of Syn2, the record shows firefly reporter light, replicate 1 = 1.05e5; firefly reporter light, replicate 2 = 1.23e5; Renilla control light, replicate 1 = 2.14e6; Renilla control light, replicate 2 = 2.14e6; inactive.
Against Rap2l the deposit lists firefly reporter light, replicate 1 = 3.26e5; firefly reporter light, replicate 2 = 4.74e5; Renilla control light, replicate 1 = 1.99e6; Renilla control light, replicate 2 = 2.36e6; inactive.
CG13297 scored firefly reporter light, replicate 1 = 2.07e5; firefly reporter light, replicate 2 = 1.74e5; Renilla control light, replicate 1 = 2.51e6; Renilla control light, replicate 2 = 2.32e6; inactive.
Against Tom #1, the entry reads firefly reporter light, replicate 1 = 8.82e5; firefly reporter light, replicate 2 = 8.38e5; Renilla control light, replicate 1 = 1.33e6; Renilla control light, replicate 2 = 1.53e6; inactive.
Tom #2 showed firefly reporter light, replicate 1 = 3.87e5; firefly reporter light, replicate 2 = 3.50e5; Renilla control light, replicate 1 = 4.88e5; Renilla control light, replicate 2 = 6.53e5; inactive.
With knock-down of Tom #3, the screen gave firefly reporter light, replicate 1 = 7.17e5; firefly reporter light, replicate 2 = 6.88e5; Renilla control light, replicate 1 = 1.56e6; Renilla control light, replicate 2 = 1.39e6; inactive.
Against Hml, the values are firefly reporter light, replicate 1 = 1.51e5; firefly reporter light, replicate 2 = 1.74e5; Renilla control light, replicate 1 = 1.25e6; Renilla control light, replicate 2 = 1.94e6; inactive.
Knock-down of Rab39 resulted in: firefly reporter light, replicate 1 = 1.13e5; firefly reporter light, replicate 2 = 1.47e5; Renilla control light, replicate 1 = 2.26e6; Renilla control light, replicate 2 = 2.75e6; inactive.
Against RpL37-2, the entry reads firefly reporter light, replicate 1 = 2.55e5; firefly reporter light, replicate 2 = 2.68e5; Renilla control light, replicate 1 = 1.96e6; Renilla control light, replicate 2 = 1.72e6; inactive.
Against CG33494, the values are firefly reporter light, replicate 1 = 2.21e5; firefly reporter light, replicate 2 = 2.48e5; Renilla control light, replicate 1 = 5.97e5; Renilla control light, replicate 2 = 7.56e5; inactive.
CG11089 + CG31381 #1 showed firefly reporter light, replicate 1 = 1.14e5; firefly reporter light, replicate 2 = 1.12e5; Renilla control light, replicate 1 = 3.03e5; Renilla control light, replicate 2 = 2.66e5; inactive.
After knock-down of CG11089 + CG31381 #2 the results were firefly reporter light, replicate 1 = 54825; firefly reporter light, replicate 2 = 98665; Renilla control light, replicate 1 = 5.43e5; Renilla control light, replicate 2 = 4.48e5; inactive.
For CG11089 + CG31381 #3 the deposit lists firefly reporter light, replicate 1 = 5.89e5; firefly reporter light, replicate 2 = 4.88e5; Renilla control light, replicate 1 = 1.40e6; Renilla control light, replicate 2 = 1.47e6; inactive.
With knock-down of Odc2 #1, the record shows firefly reporter light, replicate 1 = 4.36e5; firefly reporter light, replicate 2 = 4.42e5; Renilla control light, replicate 1 = 1.91e6; Renilla control light, replicate 2 = 1.81e6; inactive.
With knock-down of Odc2 #2, the screen gave firefly reporter light, replicate 1 = 3.02e5; firefly reporter light, replicate 2 = 2.89e5; Renilla control light, replicate 1 = 1.21e6; Renilla control light, replicate 2 = 1.14e6; active.
With knock-down of Odc2 #3, the screen gave firefly reporter light, replicate 1 = 1.01e6; firefly reporter light, replicate 2 = 1.01e6; Renilla control light, replicate 1 = 1.30e6; Renilla control light, replicate 2 = 1.46e6; inactive.

Reformatted: 2 of the entries above.
Target gene,reagent,"firefly reporter light, replicate 1","firefly reporter light, replicate 2","Renilla control light, replicate 1","Renilla control light, replicate 2",Outcome
Tom,2,3.87e5,3.50e5,4.88e5,6.53e5,inactive
Tom,3,7.17e5,6.88e5,1.56e6,1.39e6,inactive
